The subject of the assay is P388 leukemia ip, CD2F1 mice, survival T/C. The assay can be described thus: NCI In Vivo Anticancer Drug Screen. Data for tumor model P388 Leukemia (intraperitoneal) in CD2F1 (CDF1) mice. The following applies: T/C endpoint: median survival time, higher T/C = longer survival.
Setting [1] is: dose: 200.0 mg/kg/injection, schedule: Q01DX005 (ip), vehicle: Klucel (hydroxypropylcellulose) (HPC).
Setting [2] is: dose: 200.0 mg/kg/injection, schedule: Q01DX009 (ip), vehicle: saline.
Where [3] appears, read: dose: 240.0 mg/kg/injection, schedule: Q01DX005 (ip), vehicle: saline with Tween-80.
Setting [4] is: dose: 50.0 mg/kg/injection, schedule: Q01DX009 (ip), vehicle: saline.
[5] abbreviates: dose: 100.0 mg/kg/injection, schedule: Q01DX009 (ip), vehicle: saline.
Setting [6] is: dose: 200.0 mg/kg/injection, schedule: Q04DX003 (ip), vehicle: saline with Tween-80.
[7] abbreviates: dose: 400.0 mg/kg/injection, schedule: Q04DX003 (ip), vehicle: saline with Tween-80.
The mark [8] stands for this setting: dose: 400.0 mg/kg/injection, schedule: Q01DX005 (ip), vehicle: saline.
Where [9] appears, read: dose: 120.0 mg/kg/injection, schedule: Q01DX005 (ip), vehicle: saline with Tween-80.

This passage reports survivor count and T/C results from PubChem BioAssay AID330 (DTP/NCI, 2004).

The list is a part of this screen's results and no random one: it gathers tests that were run many times, whatever their T/C, doses with no T/C, and many T/C values between a quarter and a half above the control. Other doses and runs of a compound stand elsewhere. T/C is the treated group as % of the vehicle group. Some entries give survivors of the animals treated and no T/C: the source files T/C as zero there, which appears to mark a toxic dose or a test without result, not a measured value. Some doses without a T/C left all or most animals alive at the check, yet need not have been tolerated: survival well below the control is almost never listed, so the zero probably covers shortened survival too. Counts of survivors are from the toxicity check (mostly the fifth day) where no day follows; animals may have died later. Schedule codes are those of the source, read here as Q, the interval in days (D) or hours (H), X, the number of doses. Counts like (3×) give the number of equal values in this list. For survival time, the PubChem record calls one and a half times the control and up active, and a quarter to a half above the control has no call in these data; cut-offs in other NCI protocols can differ.

Turning to `CCN(CC)CCOC12CC3CC(CC(C3)C1)C2`, the survivor count (dose: 100.0 mg/kg/injection, schedule: Q01DX005 (ip), vehicle: Klucel (hydroxypropylcellulose) (HPC)) is 0 of 6 and the survivor count under setting [1] is 0 of 6.

For `O=C1C(F)=C(F)C(=O)C2(F)CC=CCC12F` (configuration not stated), the survivor count is, setting by setting: (dose: 12.5 mg/kg/injection, schedule: Q01DX005 (ip), vehicle: Klucel (hydroxypropylcellulose) (HPC)) 0 of 6; (dose: 25.0 mg/kg/injection, schedule: Q01DX005 (ip), vehicle: Klucel (hydroxypropylcellulose) (HPC)) 0 of 6; (dose: 50.0 mg/kg/injection, schedule: Q01DX005 (ip), vehicle: Klucel (hydroxypropylcellulose) (HPC)) 0 of 6; (dose: 50.0 mg/kg/injection, schedule: Q01DX005 (ip), vehicle: Klucel + Tween-80) 0 of 6; (dose: 100.0 mg/kg/injection, schedule: Q01DX005 (ip), vehicle: Klucel + Tween-80) 0 of 6; (dose: 200.0 mg/kg/injection, schedule: Q01DX005 (ip), vehicle: Klucel + Tween-80) 0 of 6.

On to `NCC1CC2(Cl)C(Cl)=C(Cl)C1(Cl)C2(Cl)Cl` (configuration not stated), for which the survivor count is listed as 0 of 6 (dose: 100.0 mg/kg/injection, schedule: Q01DX005 (ip), vehicle: saline with Tween-80) and 0 of 6 (dose: 200.0 mg/kg/injection, schedule: Q01DX005 (ip), vehicle: saline with Tween-80).

Regarding `Cn1cnc([N+](=O)[O-])c1C(=O)O`, the survivor count under setting [2] was 5 of 6.

For the compound `N=C1C=C[C@]2(O)C[C@H](Cl)CN12`, the survivor count runs as follows: (dose: 11.88 mg/kg/injection, schedule: Q01DX009 (ip), vehicle: saline) 1 of 6; (dose: 23.75 mg/kg/injection, schedule: Q01DX009 (ip), vehicle: saline) 0 of 6; (dose: 47.5 mg/kg/injection, schedule: Q01DX009 (ip), vehicle: saline) 0 of 6; (dose: 95.0 mg/kg/injection, schedule: Q01DX009 (ip), vehicle: saline) 0 of 6; (dose: 190.0 mg/kg/injection, schedule: Q01DX009 (ip), vehicle: saline) 0 of 6.

As for `CC1=C2CCC(O)C2(C)CCC(=O)C1` (configuration not stated), under “dose: 400.0 mg/kg/injection, schedule: Q04DX003 (ip), vehicle: Klucel (hydroxypropylcellulose) (HPC)”, the survivor count is 3 of 6.

Consider `N#CNC1=NCOCN1`, for which the survivor count under setting [3] is reported as 2 of 6.

In the case of `CCOC(=O)NCCF`, the survivor count is recorded as 1 of 6 (dose: 6.25 mg/kg/injection, schedule: Q01DX009 (ip), vehicle: saline); 0 of 6 (dose: 12.5 mg/kg/injection, schedule: Q01DX009 (ip), vehicle: saline); 0 of 6 (dose: 25.0 mg/kg/injection, schedule: Q01DX009 (ip), vehicle: saline); 0 of 6 under setting [4]; 0 of 6 under setting [5]; 0 of 6 under setting [2].

On to `CSC(=S)/C(=C/Nc1ncccn1)c1ccccc1`, for which the survivor count is 6 of 6 (dose: 15.0 mg/kg/injection, schedule: Q01DX005 (ip), vehicle: Klucel (hydroxypropylcellulose) (HPC)); 6 of 6 (2×) (dose: 60.0 mg/kg/injection, schedule: Q01DX005 (ip), vehicle: Klucel (hydroxypropylcellulose) (HPC)); 6 of 6 (dose: 240.0 mg/kg/injection, schedule: Q01DX005 (ip), vehicle: Klucel (hydroxypropylcellulose) (HPC)).

For `CNC(=O)Oc1ccc(/C=N/Sc2cccc([N+](=O)[O-])c2)cc1`, where the note is “dose: 200.0 mg/kg/injection, schedule: Q01DX009 (ip), vehicle: saline with Tween-80”, the survivor count is reported as 6 of 6.

For the compound `COC1(OC)CCN2OC(CO)CC21` (configuration not stated), the survivor count runs as follows: under setting [6], 6 of 6; under setting [7], 0 of 6.

For `COc1ccc(S(=O)(=O)N2OC2c2ccccc2)cc1` (configuration not stated), under “dose: 200.0 mg/kg/injection, schedule: Q01DX009 (ip), vehicle: Klucel (hydroxypropylcellulose) (HPC)”, the survivor count is listed as 3 of 6.

For the compound `O=C(O)C(O)CBr` (configuration not stated), the survivor count (dose: 12.5 mg/kg/injection, schedule: Q04DX003 (ip), vehicle: saline) is listed as 6 of 6.

As to `Cc1cc(N=[N+]=[N-])c2ccc(Cl)cc2n1`, the survivor count under setting [3] is reported as 3 of 6.

As for `CC1=C(C)C(N(C)C)CS(=O)(=O)O1` (configuration not stated), the survivor count under setting [1] is 1 of 6.

`COC(=O)CC(N)C(=O)O` (configuration not stated): under setting [8], the survivor count is 3 of 5.

For the compound `CNC(=O)OCc1nn(-c2ccc(Cl)c(Cl)c2)c(C)c1COC(=O)NC`, the survivor count runs as follows: (dose: 50.0 mg/kg/injection, schedule: Q01DX009 (ip), vehicle: distilled water + Tween-80) 6 of 6; (dose: 100.0 mg/kg/injection, schedule: Q01DX009 (ip), vehicle: distilled water + Tween-80) 6 of 6.

As for `Cc1cc2[nH]c3c(C#N)c(OC(=O)N(C)C)c(C)c(=O)n3c2cc1C`, the survivor count by setting is: under setting [9], 6 of 6; under setting [3], 6 of 6.

As for `NC(=S)N/N=C\c1ncnc2ccccc12`, the T/C is 136 % of control (dose: 8.0 mg/kg/injection, schedule: Q01DX009 (ip), vehicle: saline with Tween-80) and 131 % of control (dose: 25.0 mg/kg/injection, schedule: Q01DX009 (ip), vehicle: saline with Tween-80). Moreover, the survivor count (dose: 50.0 mg/kg/injection, schedule: Q01DX009 (ip), vehicle: saline with Tween-80) is 1 of 6; the survivor count (dose: 100.0 mg/kg/injection, schedule: Q04DX003 (ip), vehicle: saline with Tween-80) is reported as 5 of 6; the survivor count under setting [6] is on record as 0 of 6; the survivor count under setting [7] is on record as 0 of 6.

On to `O=C1C2C3CCC(O3)C2C(=O)N1SC(Cl)(Cl)Cl` (configuration not stated), for which the survivor count under setting [4] is reported as 0 of 6, the survivor count under setting [5] was 0 of 6 and the survivor count under setting [2] is 0 of 6.

In the case of `Cc1cc(Nc2ccc(O)c(CN3CCCC3)c2)cc(Nc2ccc(O)c(CN3CCCC3)c2)n1`, the survivor count is reported as 0 of 6 (dose: 100.0 mg/kg/injection, schedule: Q01DX005 (ip), vehicle: saline); 0 of 6 (dose: 200.0 mg/kg/injection, schedule: Q01DX005 (ip), vehicle: saline); 0 of 6 under setting [8].

For the compound `CN1C(=O)n2c(nc3ccccc32)C(Cl)(Cl)C1=O`, under setting [3], the survivor count is 0 of 6.

Consider `O=C1C2C3C=CC(C2C(=O)N1COP(=O)(O)O)C1C2C(=O)N(COP(=O)(O)O)C(=O)C2C31` (configuration not stated), for which the T/C (dose: 160.0 mg/kg/injection, schedule: Q01DX009 (ip), vehicle: water) was 136 % of control.

For the compound `ClCC1OCCO1`, the survivor count under setting [2] is listed as 4 of 6.

With `C=C(CBr)C(=O)OCC`, the survivor count is, setting by setting: (dose: 60.0 mg/kg/injection, schedule: Q01DX005 (ip), vehicle: saline with Tween-80) 0 of 6; under setting [9], 0 of 6; under setting [3], 0 of 6.
